# Experimental data from PubChem BioAssay (NCATS).
# The other results are listed elsewhere or left out. Further columns of the screen follow, without active or inactive calls. Compounds called inactive in the main read-out are mostly missing here. Potencies come from curve fits of mixed quality, noted in brackets.
# Test: S16 Schwann cell PMP22 intronic element beta-lactamase assay (AID 624044)
# Conditions: S16 rat Schwann cells, PMP22 element beta-lactamase FRET, 24 h; measured here: 460 nm blue channel
# Summary of the method: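 Rat S16 Schwann cells with beta-Lac driven by a PMP22 intronic element, compound-treated 24 h at 37 °C. LiveBLAzer FRET B/G read: 460 nm normalized to potassium clavulanate vs DMSO; 535 nm FRET as viability; concentration-effect curves classified.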
row,SMILES,AC50
1,CO/N=C(/C(=O)N[C@@H]1C(=O)N2C(C(=O)O)=C(CSc3nnnn3C)CS[C@H]12)c1csc(N)n1,"25100 nM [rising, single point]"
2,C=C[C@H]1CN2CCC1C[C@H]2[C@H](O)c1ccnc2ccc(OC)cc12 (some centres not stated),"7070 nM [falling, partial curve]"
3,CCCCC(=O)OCC(=O)[C@]1(O)Cc2c(O)c3c(c(O)c2[C@H](OC2CC(NC(=O)C(F)(F)F)C(O)C(C)O2)C1)C(=O)c1c(OC)cccc1C3=O (some centres not stated),"2510 nM [falling, full curve]"
4,CC(=O)[C@H]1CC[C@H]2[C@@H]3C=CC4=CC(=O)CC[C@@]4(C)[C@H]3CC[C@]12C,"107 nM [falling, full curve, poor fit]"
5,c1ccc2sc(SN3CCOCC3)nc2c1,"2510 nM [falling, partial curve, poor fit]"
6,CCCC(=O)O[C@]1(C(=O)COC(C)=O)CC[C@H]2C3C[C@H](F)C4=CC(=O)C=CC4(C)[C@@]3(F)[C@@H](O)CC21C (some centres not stated),"22400 nM [falling, partial curve, poor fit]"
7,CCC(C)n1ncn(-c2ccc(N3CCN(c4ccc(OCC5COC(Cn6cncn6)(c6ccc(Cl)cc6Cl)O5)cc4)CC3)cc2)c1=O (configuration not stated),"14100 nM [falling, partial curve, poor fit]"
8,CCC(=O)O[C@@H](OP(=O)(CCCCc1ccccc1)CC(=O)N1C[C@H](C2CCCCC2)C[C@H]1C(=O)O)C(C)C (some centres not stated),"9990 nM [rising, single point]"
9,CCOC(=O)OC(C)OC1=C(C(=O)Nc2ccccn2)N(C)S(=O)(=O)c2ccccc21 (configuration not stated),"6310 nM [falling, full curve]"
10,CC(=O)OCC(=O)[C@@]1(O)CCC2C3CCC4=CC(=O)CC[C@]4(C)C3=CC[C@@]21C (some centres not stated),"282 nM [falling, full curve, poor fit]"
11,COC1C(OC(=O)/C=C/C=C/C=C/C=C/C(=O)O)CCC2(CO2)C1C1(C)OC1CC=C(C)C (configuration not stated),"4.46 nM [falling, full curve, poor fit]"
12,CN1CCN(C2=Nc3ccccc3Sc3ccc(Cl)cc32)CC1,"1990 nM [falling, partial curve, poor fit]"
13,O=C(O)Cc1ccc(CCNS(=O)(=O)c2ccc(Cl)cc2)cc1,"141 nM [falling, full curve, poor fit]"
14,CC[N+](C)(C)c1cccc(O)c1,"2130 nM [rising, full curve, poor fit]"
15,CO[C@H]1[C@@H](OC(N)=O)[C@H](O)[C@@H](Oc2ccc3c(O)c(NC(=O)c4ccc(O)c(CC=C(C)C)c4)c(=O)oc3c2C)OC1(C)C,"21.3 nM [falling, full curve, poor fit]"
16,COc1ccc(/C=C/C(=O)OCCC(C)C)cc1,"9990 nM [rising, single point]"
17,CC(C)(O/N=C(\C(=O)N[C@@H]1C(=O)N2C(C(=O)[O-])=C(C[n+]3ccccc3)CS[C@@H]12)c1csc(N)n1)C(=O)O,"10700 nM [falling, single point]"
18,CN[C@@H]1[C@H](O[C@@H]2O[C@H](CO)[C@@H](N)[C@H](O)[C@@H]2O)O[C@H]2C[C@@H](N)[C@@H](O[C@H]3[C@@H](O)[C@H](O)[C@H](N)C[C@@H]3N)O[C@H]2[C@H]1O,"6730 nM [falling, partial curve, poor fit]"
19,Nc1nc(Cl)nc2c1ncn2[C@@H]1O[C@H](CO)[C@H](O)C1F (some centres not stated),"5620 nM [falling, partial curve]"
20,Cc1cc(C(=O)NCCc2ccc(S(=O)(=O)NC(=O)NN3CCCCCC3)cc2)no1,"15800 nM [rising, partial curve, poor fit]"
21,CC(=O)OCC(=O)[C@@]12OC(C)(C)O[C@@H]1C[C@H]1[C@H]3C[C@H](F)C4=CC(=O)C=C[C@@]4(C)[C@]3(F)[C@H](O)C[C@@]12C,"21.3 nM [falling, full curve, poor fit]"
22,CCCN[C@H]1CCc2nc(N)sc2C1,"501 nM [falling, partial curve, poor fit]"
23,Nc1cccc2c1CN(C1CCC(=O)NC1=O)C2=O (configuration not stated),"25100 nM [falling, single point]"
24,CN(C)CCC[C@@]1(c2ccc(F)cc2)OCc2cc(C#N)ccc21,"5.01 nM [falling, full curve, poor fit]"
25,CC(C)(Cc1c[nH]c2ccccc12)NCC(O)COc1ccccc1C#N (configuration not stated),"31.6 nM [falling, full curve, poor fit]"
26,CC1(C)[C@@H]2CC[C@@]1(C)C(=O)C2,"5010 nM [falling, full curve]"
27,C#C[C@]1(O)CCC2C3CCC4=CC(=O)CCC4C3CC[C@@]21C (some centres not stated),"282 nM [falling, full curve, poor fit]"

# 2 records picked at random from those above, as already listed:
row,SMILES,AC50
2,C=C[C@H]1CN2CCC1C[C@H]2[C@H](O)c1ccnc2ccc(OC)cc12 (some centres not stated),"7070 nM [falling, partial curve]"
1,CO/N=C(/C(=O)N[C@@H]1C(=O)N2C(C(=O)O)=C(CSc3nnnn3C)CS[C@H]12)c1csc(N)n1,"25100 nM [rising, single point]"
